Test results published in PMC7327037.
No constants are given. Whether binding was seen depends on the method and setting. In cells and extracts the contact can be indirect. Some binding calls cover weakened binding; strength is not graded here. For some assays here: Where a sequence is shown, tags or fusion partners need not be part of it.

Amino acid sequences for entries named in this document (tags omitted).
UniProt P42338: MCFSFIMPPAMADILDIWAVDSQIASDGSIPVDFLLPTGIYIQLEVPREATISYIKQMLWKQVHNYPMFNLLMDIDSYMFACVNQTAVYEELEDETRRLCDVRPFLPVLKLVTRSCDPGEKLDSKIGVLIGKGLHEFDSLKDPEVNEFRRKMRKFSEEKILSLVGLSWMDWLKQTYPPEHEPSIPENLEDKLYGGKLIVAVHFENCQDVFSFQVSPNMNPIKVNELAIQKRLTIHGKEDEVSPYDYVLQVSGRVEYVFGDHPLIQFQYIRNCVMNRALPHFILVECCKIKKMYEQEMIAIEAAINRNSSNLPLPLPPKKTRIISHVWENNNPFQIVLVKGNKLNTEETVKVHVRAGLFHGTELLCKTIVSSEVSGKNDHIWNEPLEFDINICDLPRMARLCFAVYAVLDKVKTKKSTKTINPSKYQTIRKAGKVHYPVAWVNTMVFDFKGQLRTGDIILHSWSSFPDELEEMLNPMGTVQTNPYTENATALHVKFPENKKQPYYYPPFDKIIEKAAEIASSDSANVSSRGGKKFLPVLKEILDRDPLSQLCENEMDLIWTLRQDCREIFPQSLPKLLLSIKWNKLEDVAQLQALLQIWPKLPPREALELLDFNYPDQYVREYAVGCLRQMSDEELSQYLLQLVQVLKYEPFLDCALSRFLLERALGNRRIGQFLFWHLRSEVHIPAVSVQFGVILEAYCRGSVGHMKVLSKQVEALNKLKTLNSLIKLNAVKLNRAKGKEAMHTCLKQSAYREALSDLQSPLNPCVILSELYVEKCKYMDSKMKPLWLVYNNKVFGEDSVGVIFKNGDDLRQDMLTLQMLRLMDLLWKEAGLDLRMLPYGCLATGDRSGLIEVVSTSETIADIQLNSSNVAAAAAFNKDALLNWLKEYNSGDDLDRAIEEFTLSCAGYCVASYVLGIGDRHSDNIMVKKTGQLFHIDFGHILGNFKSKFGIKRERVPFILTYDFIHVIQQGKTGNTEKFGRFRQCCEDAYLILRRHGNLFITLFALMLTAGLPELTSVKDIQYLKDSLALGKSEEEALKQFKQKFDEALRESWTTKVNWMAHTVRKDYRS

Columns and labels:
[1] = target: T1, FOXM1D as used in the GST pull down assays (Supplementary Fig. 3b, 4c) (UniProt Q08050); assay: pull-down; GST pull down (Supplementary Fig. 3b, 4c); which partner carried GST not told in the text shown
T1 sequence: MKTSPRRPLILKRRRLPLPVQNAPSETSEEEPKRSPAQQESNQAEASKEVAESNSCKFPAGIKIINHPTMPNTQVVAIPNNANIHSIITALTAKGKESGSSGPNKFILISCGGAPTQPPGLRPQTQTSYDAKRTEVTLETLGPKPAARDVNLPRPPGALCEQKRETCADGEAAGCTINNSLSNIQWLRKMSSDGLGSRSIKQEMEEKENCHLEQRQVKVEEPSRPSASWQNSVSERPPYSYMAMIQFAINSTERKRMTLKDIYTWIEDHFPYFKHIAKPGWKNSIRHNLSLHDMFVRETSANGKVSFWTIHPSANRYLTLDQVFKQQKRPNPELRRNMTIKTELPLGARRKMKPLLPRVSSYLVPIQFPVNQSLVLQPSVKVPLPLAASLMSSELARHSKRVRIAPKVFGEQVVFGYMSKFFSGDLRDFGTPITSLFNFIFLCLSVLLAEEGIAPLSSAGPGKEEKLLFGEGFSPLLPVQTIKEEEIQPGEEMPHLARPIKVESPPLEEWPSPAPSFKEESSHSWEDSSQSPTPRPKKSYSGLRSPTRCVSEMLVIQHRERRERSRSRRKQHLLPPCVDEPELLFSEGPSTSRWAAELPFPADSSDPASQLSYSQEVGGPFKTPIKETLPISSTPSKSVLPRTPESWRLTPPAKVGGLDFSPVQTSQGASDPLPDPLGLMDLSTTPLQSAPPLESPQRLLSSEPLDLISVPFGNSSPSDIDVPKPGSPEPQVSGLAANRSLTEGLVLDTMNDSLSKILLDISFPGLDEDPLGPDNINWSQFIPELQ

[2] = target: T2, FOXM1D as used in the co-IP and reverse/reciprocal co-IP assays (Fig. 1b, f, g; Supplementary Fig. 3a) (UniProt Q08050); assay: co-IP; co-IP and reverse (reciprocal) co-IP (Fig. 1b, f, g; Supplementary Fig. 3a); cells, tags and antibodies not told in the text shown
T2 sequence: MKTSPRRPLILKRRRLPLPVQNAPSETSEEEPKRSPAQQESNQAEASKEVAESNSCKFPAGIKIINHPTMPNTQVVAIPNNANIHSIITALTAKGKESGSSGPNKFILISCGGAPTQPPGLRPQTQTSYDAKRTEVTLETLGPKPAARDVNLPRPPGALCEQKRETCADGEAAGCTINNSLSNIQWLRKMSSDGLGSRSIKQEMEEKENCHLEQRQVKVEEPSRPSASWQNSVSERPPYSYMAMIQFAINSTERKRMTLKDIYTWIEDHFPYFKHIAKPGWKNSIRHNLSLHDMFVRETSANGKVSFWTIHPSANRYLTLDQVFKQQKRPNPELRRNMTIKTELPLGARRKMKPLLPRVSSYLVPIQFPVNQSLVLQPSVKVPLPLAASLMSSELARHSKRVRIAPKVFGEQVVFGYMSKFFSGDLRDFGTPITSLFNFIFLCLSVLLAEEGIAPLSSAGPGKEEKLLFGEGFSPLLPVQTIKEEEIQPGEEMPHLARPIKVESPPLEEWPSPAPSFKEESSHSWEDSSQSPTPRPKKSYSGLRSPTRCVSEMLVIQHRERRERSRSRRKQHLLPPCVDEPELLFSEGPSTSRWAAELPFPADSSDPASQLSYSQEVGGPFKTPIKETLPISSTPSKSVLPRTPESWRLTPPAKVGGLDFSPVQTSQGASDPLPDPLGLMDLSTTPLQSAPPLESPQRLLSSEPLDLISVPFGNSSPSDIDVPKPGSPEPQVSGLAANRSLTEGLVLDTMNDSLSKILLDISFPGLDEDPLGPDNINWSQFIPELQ

[3] = target: T3, FLAG-FOXM1D (Forkhead box M1 isoform D), expressed in 293FT cells (UniProt Q08050); assay: co-IP; lysates/extracts of 293FT cells expressing FLAG-FOXM1D or FLAG-tagged truncated mutants (with HA-p85α plasmids for p85α); precipitated with a FLAG antibody; immunoblot with FLAG and p110β or HA antibodies
T3 sequence: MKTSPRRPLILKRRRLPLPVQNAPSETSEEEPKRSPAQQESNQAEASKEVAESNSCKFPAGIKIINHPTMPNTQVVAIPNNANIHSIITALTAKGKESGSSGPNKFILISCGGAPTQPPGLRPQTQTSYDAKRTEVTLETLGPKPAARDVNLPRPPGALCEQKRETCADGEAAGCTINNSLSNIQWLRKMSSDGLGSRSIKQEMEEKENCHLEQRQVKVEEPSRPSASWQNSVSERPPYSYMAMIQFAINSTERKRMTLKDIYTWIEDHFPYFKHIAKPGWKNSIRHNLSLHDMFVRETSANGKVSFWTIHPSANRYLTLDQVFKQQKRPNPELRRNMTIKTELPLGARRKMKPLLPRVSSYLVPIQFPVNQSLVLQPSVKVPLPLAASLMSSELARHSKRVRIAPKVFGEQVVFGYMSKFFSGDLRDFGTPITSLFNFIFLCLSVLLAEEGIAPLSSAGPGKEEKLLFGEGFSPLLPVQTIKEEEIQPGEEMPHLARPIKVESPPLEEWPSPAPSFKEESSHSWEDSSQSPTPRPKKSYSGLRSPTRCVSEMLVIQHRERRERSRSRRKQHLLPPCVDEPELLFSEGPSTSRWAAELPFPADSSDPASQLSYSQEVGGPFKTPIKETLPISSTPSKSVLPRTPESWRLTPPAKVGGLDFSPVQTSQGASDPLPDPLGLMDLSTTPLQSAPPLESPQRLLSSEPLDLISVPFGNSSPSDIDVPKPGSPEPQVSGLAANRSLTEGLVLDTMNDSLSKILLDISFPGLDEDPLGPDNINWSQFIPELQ

[4] = target: p110β as used in the co-IP (Fig. 1b) and reverse co-IP (Supplementary Fig. 3a) assays (UniProt P42338); assay: co-IP; co-IP and reverse (reciprocal) co-IP (Fig. 1b, f, g; Supplementary Fig. 3a); cells, tags and antibodies not told in the text shown

p110β as used in the GST pull down assay (Supplementary Fig. 3b) (from UniProt P42338 1-1070)
binding [1]: binds

p110β as used in the co-IP (Fig. 1b) and reverse co-IP (Supplementary Fig. 3a) assays (from UniProt P42338 1-1070)
binding [2]: binds

p110β in 293FT cell lysates (detected with a p110β antibody, Fig. 1e) (from UniProt P42338 1-1070)
binding [3]: binds

B1: p110δ as used in the co-IP assay of Fig. 1b (protein, UniProt O00329 1-1044)
chain: MPPGVDCPMEFWTKEENQSVVVDFLLPTGVYLNFPVSRNANLSTIKQLLWHRAQYEPLFHMLSGPEAYVFTCINQTAEQQELEDEQRRLCDVQPFLPVLRLVAREGDRVKKLINSQISLLIGKGLHEFDSLCDPEVNDFRAKMCQFCEEAAARRQQLGWEAWLQYSFPLQLEPSAQTWGPGTLRLPNRALLVNVKFEGSEESFTFQVSTKDVPLALMACALRKKATVFRQPLVEQPEDYTLQVNGRHEYLYGSYPLCQFQYICSCLHSGLTPHLTMVHSSSILAMRDEQSNPAPQVQKPRAKPPPIPAKKPSSVSLWSLEQPFRIELIQGSKVNADERMKLVVQAGLFHGNEMLCKTVSSSEVSVCSEPVWKQRLEFDINICDLPRMARLCFALYAVIEKAKKARSTKKKSKKADCPIAWANLMLFDYKDQLKTGERCLYMWPSVPDEKGELLNPTGTVRSNPNTDSAAALLICLPEVAPHPVYYPALEKILELGRHSECVHVTEEEQLQLREILERRGSGELYEHEKDLVWKLRHEVQEHFPEALARLLLVTKWNKHEDVAQMLYLLCSWPELPVLSALELLDFSFPDCHVGSFAIKSLRKLTDDELFQYLLQLVQVLKYESYLDCELTKFLLDRALANRKIGHFLFWHLRSEMHVPSVALRFGLILEAYCRGSTHHMKVLMKQGEALSKLKALNDFVKLSSQKTPKPQTKELMHLCMRQEAYLEALSHLQSPLDPSTLLAEVCVEQCTFMDSKMKPLWIMYSNEEAGSGGSVGIIFKNGDDLRQDMLTLQMIQLMDVLWKQEGLDLRMTPYGCLPTGDRTGLIEVVLRSDTIANIQLNKSNMAATAAFNKDALLNWLKSKNPGEALDRAIEEFTLSCAGYCVATYVLGIGDRHSDNIMIRESGQLFHIDFGHFLGNFKTKFGINRERVPFILTYDFVHVIQQGKTNNSEKFERFRGYCERAYTILRRHGLLFLHLFALMRAAGLPELSCSKDIQYLKDSLALGKTEEEALKHFRVKFNEALRESWKTKVNWLAHNVSKDNRQ
binding [2]: binds

B2: FOXM1D as used in the co-IP and reverse/reciprocal co-IP assays (Fig. 1b, f, g; Supplementary Fig. 3a) (protein, UniProt Q08050-4 1-786)
chain: MKTSPRRPLILKRRRLPLPVQNAPSETSEEEPKRSPAQQESNQAEASKEVAESNSCKFPAGIKIINHPTMPNTQVVAIPNNANIHSIITALTAKGKESGSSGPNKFILISCGGAPTQPPGLRPQTQTSYDAKRTEVTLETLGPKPAARDVNLPRPPGALCEQKRETCADGEAAGCTINNSLSNIQWLRKMSSDGLGSRSIKQEMEEKENCHLEQRQVKVEEPSRPSASWQNSVSERPPYSYMAMIQFAINSTERKRMTLKDIYTWIEDHFPYFKHIAKPGWKNSIRHNLSLHDMFVRETSANGKVSFWTIHPSANRYLTLDQVFKQQKRPNPELRRNMTIKTELPLGARRKMKPLLPRVSSYLVPIQFPVNQSLVLQPSVKVPLPLAASLMSSELARHSKRVRIAPKVFGEQVVFGYMSKFFSGDLRDFGTPITSLFNFIFLCLSVLLAEEGIAPLSSAGPGKEEKLLFGEGFSPLLPVQTIKEEEIQPGEEMPHLARPIKVESPPLEEWPSPAPSFKEESSHSWEDSSQSPTPRPKKSYSGLRSPTRCVSEMLVIQHRERRERSRSRRKQHLLPPCVDEPELLFSEGPSTSRWAAELPFPADSSDPASQLSYSQEVGGPFKTPIKETLPISSTPSKSVLPRTPESWRLTPPAKVGGLDFSPVQTSQGASDPLPDPLGLMDLSTTPLQSAPPLESPQRLLSSEPLDLISVPFGNSSPSDIDVPKPGSPEPQVSGLAANRSLTEGLVLDTMNDSLSKILLDISFPGLDEDPLGPDNINWSQFIPELQ
binding [4]: binds
